Binding data for one molecule are collected here from patent US20110104705A1, “Musclin receptor and use thereof” (Takeda Pharmaceutical Company Limited, priority 2006, published 2011).

No constants are given. Whether binding was seen depends on the method and setting. Some binding calls cover weakened binding; strength is not graded here.

This test concerns the target T1, human NPR3 (hNpr3) expressed on FreeStyle293 cells (human) (UniProt P17342).
T1 sequence: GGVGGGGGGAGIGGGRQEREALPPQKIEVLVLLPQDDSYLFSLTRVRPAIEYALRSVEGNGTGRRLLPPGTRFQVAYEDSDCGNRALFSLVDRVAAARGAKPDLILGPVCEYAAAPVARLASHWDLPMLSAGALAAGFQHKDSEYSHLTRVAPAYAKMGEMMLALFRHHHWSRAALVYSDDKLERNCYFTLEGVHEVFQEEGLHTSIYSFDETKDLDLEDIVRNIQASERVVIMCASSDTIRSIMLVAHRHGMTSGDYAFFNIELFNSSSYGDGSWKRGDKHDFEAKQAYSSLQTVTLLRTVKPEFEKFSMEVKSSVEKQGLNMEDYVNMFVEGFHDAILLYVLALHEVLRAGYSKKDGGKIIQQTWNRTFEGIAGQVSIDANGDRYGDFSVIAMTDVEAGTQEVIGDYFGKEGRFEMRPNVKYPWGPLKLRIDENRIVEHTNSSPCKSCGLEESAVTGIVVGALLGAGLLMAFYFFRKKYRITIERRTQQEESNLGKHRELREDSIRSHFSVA
Kind of test: competition with BK-/BC-mMusclin on hNpr3-transfected FreeStyle293 cells, single concentration; binding shown by displacement.

B1: full-length mMusclin (unlabeled) (ligand)
chain: LASQEFGTASLQSPPTAREEKSATELSAKLLRLDDLVSLENDVFETKKKRSFSGFGSPLDRLSAGSVEHRGKQRKAVDHSKKRFGIPMDRIGRNRLSSSRG
As to B1, the binding result is “binds”.
